This passage reports binding results from patent US6468985B1, “Retinoblastoma protein-interacting zinc finger proteins” (The Burnham Institute, priority 1994, dated 2002).

No constants are given. Whether binding was seen depends on the method and setting. Some binding calls cover weakened binding; strength is not graded here.

The target in the assay is T1, hypophosphorylated Rb (pRb) from HT1080 cell extract (UniProt P06400).
T1 sequence (hypophosphorylated form, looked up): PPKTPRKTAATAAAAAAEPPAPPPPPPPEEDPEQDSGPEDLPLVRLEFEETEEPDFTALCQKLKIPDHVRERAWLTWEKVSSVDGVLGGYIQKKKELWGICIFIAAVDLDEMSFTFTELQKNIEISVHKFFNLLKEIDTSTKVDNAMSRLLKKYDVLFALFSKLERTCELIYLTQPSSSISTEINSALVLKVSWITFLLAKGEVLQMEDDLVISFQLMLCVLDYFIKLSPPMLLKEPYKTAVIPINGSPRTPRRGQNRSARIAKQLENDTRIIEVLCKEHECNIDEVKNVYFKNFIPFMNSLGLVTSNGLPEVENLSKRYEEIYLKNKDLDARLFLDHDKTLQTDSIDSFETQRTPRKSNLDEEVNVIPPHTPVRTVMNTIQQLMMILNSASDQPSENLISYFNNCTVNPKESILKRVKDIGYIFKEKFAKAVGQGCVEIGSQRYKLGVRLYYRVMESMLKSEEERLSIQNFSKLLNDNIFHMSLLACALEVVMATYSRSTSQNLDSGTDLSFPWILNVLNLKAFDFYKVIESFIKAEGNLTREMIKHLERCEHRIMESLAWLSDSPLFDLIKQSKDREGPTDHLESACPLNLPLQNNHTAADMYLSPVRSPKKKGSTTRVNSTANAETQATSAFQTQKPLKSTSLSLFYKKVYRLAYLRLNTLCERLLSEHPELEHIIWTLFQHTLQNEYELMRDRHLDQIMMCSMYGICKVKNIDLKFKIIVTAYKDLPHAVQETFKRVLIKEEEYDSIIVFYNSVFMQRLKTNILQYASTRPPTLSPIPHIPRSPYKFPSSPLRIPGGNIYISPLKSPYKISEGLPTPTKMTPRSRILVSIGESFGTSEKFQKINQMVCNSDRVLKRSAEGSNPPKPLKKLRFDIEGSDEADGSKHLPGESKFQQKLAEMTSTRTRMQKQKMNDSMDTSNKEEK
The experiment in a line: competition against GST-RIZ (215-462) for Rb in HT1080 extract.

On to “E1A protein from a cell lysate of 293 cells stably transfected to express E1A (from UniProt P03255 1-289)”, for which the binding result is “binds”.
